The record followed here is article PMC12402098, “YTHDF3 recognizes DNA N6-methyladenine and recruits ALKBH1 for 6mA removal from genomic DNA” (The EMBO Journal, 2025).

Protein sequences, listed by entry. Tags and fused reporters are not part of them.
UniProt Q7Z739: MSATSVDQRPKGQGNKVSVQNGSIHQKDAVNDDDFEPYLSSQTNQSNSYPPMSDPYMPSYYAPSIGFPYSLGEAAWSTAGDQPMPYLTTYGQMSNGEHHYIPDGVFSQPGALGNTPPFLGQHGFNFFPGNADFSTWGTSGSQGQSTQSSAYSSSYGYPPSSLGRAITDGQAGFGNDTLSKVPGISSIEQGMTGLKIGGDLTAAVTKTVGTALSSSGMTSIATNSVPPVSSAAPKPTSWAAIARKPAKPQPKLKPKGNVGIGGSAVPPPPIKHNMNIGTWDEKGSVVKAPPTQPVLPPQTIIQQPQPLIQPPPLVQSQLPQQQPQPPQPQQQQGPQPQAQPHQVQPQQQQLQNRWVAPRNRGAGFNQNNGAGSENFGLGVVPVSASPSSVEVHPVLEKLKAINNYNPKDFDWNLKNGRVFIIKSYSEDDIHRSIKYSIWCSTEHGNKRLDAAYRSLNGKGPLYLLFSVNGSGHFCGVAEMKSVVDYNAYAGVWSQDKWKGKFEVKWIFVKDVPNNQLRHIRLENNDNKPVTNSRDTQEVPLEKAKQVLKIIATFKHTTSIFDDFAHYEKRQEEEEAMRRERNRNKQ
UniProt Q9BYJ9: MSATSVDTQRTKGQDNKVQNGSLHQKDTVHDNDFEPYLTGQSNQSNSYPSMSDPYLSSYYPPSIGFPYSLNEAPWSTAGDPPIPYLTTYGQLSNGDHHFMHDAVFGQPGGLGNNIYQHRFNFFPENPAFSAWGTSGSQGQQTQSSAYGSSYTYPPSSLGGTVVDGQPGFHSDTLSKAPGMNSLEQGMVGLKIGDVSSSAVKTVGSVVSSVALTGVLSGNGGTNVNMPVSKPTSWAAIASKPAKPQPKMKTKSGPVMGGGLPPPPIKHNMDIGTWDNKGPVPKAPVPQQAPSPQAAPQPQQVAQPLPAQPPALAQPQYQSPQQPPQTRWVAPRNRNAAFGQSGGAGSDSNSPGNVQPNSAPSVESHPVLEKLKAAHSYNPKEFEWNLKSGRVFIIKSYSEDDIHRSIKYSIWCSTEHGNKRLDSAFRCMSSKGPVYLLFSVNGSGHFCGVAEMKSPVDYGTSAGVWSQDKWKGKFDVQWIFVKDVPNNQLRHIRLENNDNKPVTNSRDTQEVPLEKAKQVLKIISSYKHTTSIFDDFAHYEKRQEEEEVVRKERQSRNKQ
UniProt P11586: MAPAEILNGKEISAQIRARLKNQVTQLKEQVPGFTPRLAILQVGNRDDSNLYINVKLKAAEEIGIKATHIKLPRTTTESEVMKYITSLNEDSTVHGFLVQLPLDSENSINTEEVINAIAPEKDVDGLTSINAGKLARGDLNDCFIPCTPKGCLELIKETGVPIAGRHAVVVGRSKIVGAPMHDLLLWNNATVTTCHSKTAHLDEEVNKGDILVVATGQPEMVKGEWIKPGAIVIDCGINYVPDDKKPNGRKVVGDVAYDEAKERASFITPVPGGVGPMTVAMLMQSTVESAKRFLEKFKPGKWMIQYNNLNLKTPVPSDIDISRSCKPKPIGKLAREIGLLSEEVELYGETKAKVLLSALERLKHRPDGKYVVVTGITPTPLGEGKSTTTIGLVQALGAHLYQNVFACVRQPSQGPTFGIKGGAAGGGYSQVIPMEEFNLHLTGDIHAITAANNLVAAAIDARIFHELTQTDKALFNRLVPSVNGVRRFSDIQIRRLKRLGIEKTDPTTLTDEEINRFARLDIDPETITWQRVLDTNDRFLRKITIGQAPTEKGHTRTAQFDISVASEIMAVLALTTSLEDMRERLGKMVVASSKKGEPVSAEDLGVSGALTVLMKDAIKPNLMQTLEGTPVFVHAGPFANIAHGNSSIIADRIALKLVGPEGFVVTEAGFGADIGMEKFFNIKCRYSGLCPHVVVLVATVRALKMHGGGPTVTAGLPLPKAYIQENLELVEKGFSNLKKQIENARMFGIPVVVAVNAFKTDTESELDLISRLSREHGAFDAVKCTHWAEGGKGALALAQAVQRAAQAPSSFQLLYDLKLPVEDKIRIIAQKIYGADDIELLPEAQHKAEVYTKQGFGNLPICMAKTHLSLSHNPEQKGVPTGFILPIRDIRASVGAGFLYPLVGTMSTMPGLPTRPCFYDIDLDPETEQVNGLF

Test [1] deals with T1, ALKBH1-Flag (UniProt Q13686).
T1 sequence: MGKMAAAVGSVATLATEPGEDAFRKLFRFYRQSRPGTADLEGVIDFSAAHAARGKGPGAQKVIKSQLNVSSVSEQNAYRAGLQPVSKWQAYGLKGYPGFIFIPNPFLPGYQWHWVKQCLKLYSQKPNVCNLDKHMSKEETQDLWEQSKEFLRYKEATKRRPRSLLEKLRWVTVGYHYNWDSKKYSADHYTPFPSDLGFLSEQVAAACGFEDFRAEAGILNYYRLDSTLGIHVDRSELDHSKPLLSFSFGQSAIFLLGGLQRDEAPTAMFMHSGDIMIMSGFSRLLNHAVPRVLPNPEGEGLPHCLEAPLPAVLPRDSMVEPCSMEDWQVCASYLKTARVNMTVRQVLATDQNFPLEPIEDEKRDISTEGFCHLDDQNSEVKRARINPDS
The experiment in a line: affinity purification with mass spectrometry; ALKBH1-FLAG complexes coimmunoprecipitated with an anti-FLAG antibody from human cells, SDS-PAGE, silver stain, differential gel bands identified by mass spectrometry.

Test [2] concerns the target T1, ALKBH1-Flag. The test is described as above. The source holds these as a separate data set.

Where two headings read alike, the source gives them in different places. No constants are given. Whether binding was seen depends on the method and setting. In cells and extracts the contact can be indirect. Here binding means that the protein was enriched with, or labelled near, the bait; the list need not be complete. A no says only that the protein was not detected with the bait. Where a sequence is shown, tags or fusion partners need not be part of it.

In the case of “YTHDF3 (endogenous) (from UniProt Q7Z739 1-585)”, the binding entry with ALKBH1-Flag [1] is recorded as “binds”.

For the molecule YTHDF1 (from UniProt Q9BYJ9 1-559), in the test with ALKBH1-Flag [1], the binding result is “no binding”.

As to MTHFD1 (from UniProt P11586 1-935), in the test with ALKBH1-Flag [1], the binding entry was “binds”.

B1: YTHDC2 (protein, UniProt Q9H6S0 1-1430)
chain: MSRPSSVSPRQPAPGGGGGGGPSPCGPGGGGRAKGLKDIRIDEEVKIAVNIALERFRYGDQREMEFPSSLTSTERAFIHRLSQSLGLVSKSKGKGANRYLTVKKKDGSETAHAMMTCNLTHNTKHAVRSLIQRFPVTNKERTELLPKTERGNVFAVEAENREMSKTSGRLNNGIPQIPVKRGESEFDSFRQSLPVFEKQEEIVKIIKENKVVLIVGETGSGKTTQIPQFLLDDCFKNGIPCRIFCTQPRRLAAIAVAERVAAERRERIGQTIGYQIRLESRVSPKTLLTFCTNGVLLRTLMAGDSTLSTVTHVIVDEVHERDRFSDFLLTKLRDLLQKHPTLKLILSSAALDVNLFIRYFGSCPVIYIQGRPFEVKEMFLEDILRTTGYTNKEMLKYKKEKQQEEKQQTTLTEWYSAQENSFKPESQRQRTVLNVTDEYDLLDDGGDAVFSQLTEKDVNCLEPWLIKEMDACLSDIWLHKDIDAFAQVFHLILTENVSVDYRHSETSATALMVAAGRGFASQVEQLISMGANVHSKASNGWMALDWAKHFGQTEIVDLLESYSATLEFGNLDESSLVQTNGSDLSAEDRELLKAYHHSFDDEKVDLDLIMHLLYNICHSCDAGAVLIFLPGYDEIVGLRDRILFDDKRFADSTHRYQVFMLHSNMQTSDQKKVLKNPPAGVRKIILSTNIAETSITVNDVVFVIDSGKVKEKSFDALNFVTMLKMVWISKASAIQRKGRAGRCRPGICFRLFSRLRFQNMLEFQTPELLRMPLQELCLHTKLLAPVNCPIADFLMKAPEPPPALIVRNAVQMLKTIDAMDTWEDLTELGYHLADLPVEPHLGKMVLCAVVLKCLDPILTIACTLAYRDPFVLPTQASQKRAAMLCRKRFTAGAFSDHMALLRAFQAWQKARSDGWERAFCEKNFLSQATMEIIIGMRTQLLGQLRASGFVRARGGGDIRDVNTNSENWAVVKAALVAGMYPNLVHVDRENLVLTGPKEKKVRFHPASVLSQPQYKKIPPANGQAAAIKALPTDWLIYDEMTRAHRIANIRCCSAVTPVTILVFCGPARLASNALQEPSSFRVDGIPNDSSDSEMEDKTTANLAALKLDEWLHFTLEPEAASLLLQLRQKWHSLFLRRMRAPSKPWSQVDEATIRAIIAVLSTEEQSAGLQQPSGIGQRPRPMSSEELPLASSWRSNNSRKSSADTEFSDECTTAERVLMKSPSPALHPPQKYKDRGILHPKRGTEDRSDQSSLKSTDSSSYPSPCASPSPPSSGKGSKSPSPRPNMPVRYFIMKSSNLRNLEISQQKGIWSTTPSNERKLNRAFWESSIVYLVFSVQGSGHFQGFSRMSSEIGREKSQDWGSAGLGGVFKVEWIRKESLPFQFAHHLLNPWNDNKKVQISRDGQELEPLVGEQLLQLWERLPLGEKNTTD
Regarding B1, the binding entry with ALKBH1-Flag [2] is “no binding”.
